Cell number after 72 h of treatment

Source: doi:10.1371/journal.pone.0140310, primary screening data, rounded.

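Human melanoma cell lines in 1,536-well plates were treated with two drugs together for 72 h, then fixed, stained and imaged. The read-out is cell count (nuclei) in % of the DMSO control; lower values mean stronger growth inhibition or killing. Every drug was used at one fixed concentration, the higher of two screened. No replicate spread is given; individual values may be noisy.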 This is part of the screen, not chosen by result.

Drugs:
tamatinib: COc1cc(Nc2ncc(F)c(Nc3ccc4c(n3)NC(=O)C(C)(C)O4)n2)cc(OC)c1OC at 2000 nM
vatalanib: Clc1ccc(Nc2nnc(Cc3ccncc3)c3ccccc23)cc1 at 10000 nM
YM155: COCC[n+]1c2c(n(Cc3cnccn3)c1C)C(=O)c1ccccc1C2=O at 2 nM
MK-2206: NC1(c2ccc(-c3nc4ccn5c(=O)[nH]nc5c4cc3-c3ccccc3)cc2)CCC1 at 2000 nM
OSU-03012: NCC(=O)Nc1ccc(-n2nc(C(F)(F)F)cc2-c2ccc3c(ccc4ccccc43)c2)cc1 at 5000 nM
BI-78D3: O=c1[nH]nc(Sc2ncc([N+](=O)[O-])s2)n1-c1ccc2c(c1)OCCO2 at 1000 nM
SNS-314: O=C(Nc1cccc(Cl)c1)Nc1ncc(CCNc2ncnc3ccsc23)s1 at 4 nM
erlotinib: C#Cc1cccc(Nc2ncnc3cc(OCCOC)c(OCCOC)cc23)c1 at 4000 nM
bexarotene: C=C(c1ccc(C(=O)O)cc1)c1cc2c(cc1C)C(C)(C)CCC2(C)C at 10000 nM
GSK650394: O=C(O)c1ccc(-c2c[nH]c3ncc(-c4ccccc4)cc23)cc1C1CCCC1 at 800 nM
SNS-032: CC(C)(C)c1cnc(CSc2cnc(NC(=O)C3CCNCC3)s2)o1 at 50 nM
nilutamide: CC1(C)NC(=O)N(c2ccc([N+](=O)[O-])c(C(F)(F)F)c2)C1=O at 5000 nM
CHIR-265: Cn1c(Nc2ccc(C(F)(F)F)cc2)nc2cc(Oc3ccnc(-c4ncc(C(F)(F)F)[nH]4)c3)ccc21 at 400 nM
MK-1775: C=CCn1c(=O)c2cnc(Nc3ccc(N4CCN(C)CC4)cc3)nc2n1-c1cccc(C(C)(C)O)n1 at 100 nM
ZM336372: Cc1ccc(NC(=O)c2cccc(N(C)C)c2)cc1NC(=O)c1ccc(O)cc1 at 10000 nM

Pair,WM3619,WM451Lu
GSK650394 + MK-2206,74.2,97.2
erlotinib + MK-2206,71.9,73.3
tamatinib + MK-1775,51.6,66.5
tamatinib + SNS-032,60.4,82.4
vatalanib + bexarotene,76.7,88.5
bexarotene + MK-2206,70.0,102
SNS-032 + CHIR-265,42.4,36.6
MK-1775 + nilutamide,56.0,142
erlotinib + bexarotene,114,89.4
vatalanib + MK-1775,40.0,57.7
nilutamide + tamatinib,58.0,83.3
SNS-032 + OSU-03012,80.3,75.4
OSU-03012 + bexarotene,29.9,94.0
tamatinib + ZM336372,72.0,71.5
vatalanib + SNS-314,60.8,67.3
MK-2206 + SNS-314,91.2,78.1
OSU-03012 + tamatinib,75.3,59.4
BI-78D3 + tamatinib,55.6,89.2
BI-78D3 + erlotinib,81.2,85.0
BI-78D3 + nilutamide,89.7,75.2
BI-78D3 + MK-2206,79.6,85.3
SNS-314 + GSK650394,76.6,50.0
SNS-314 + YM155,67.6,36.7
MK-2206 + OSU-03012,20.3,104
OSU-03012 + GSK650394,55.8,83.0
YM155 + SNS-032,39.6,27.3
erlotinib + MK-1775,55.7,89.2
ZM336372 + vatalanib,36.4,111
MK-2206 + tamatinib,65.6,77.2
YM155 + GSK650394,80.4,56.2
SNS-314 + tamatinib,55.9,47.4
YM155 + nilutamide,92.9,45.4
SNS-314 + bexarotene,57.3,61.8
nilutamide + GSK650394,80.6,80.5
nilutamide + ZM336372,105,107
MK-1775 + BI-78D3,45.0,102
BI-78D3 + OSU-03012,102,90.2

The last 4 entries again:

Pair	WM3619	WM451Lu
nilutamide + GSK650394	80.6	80.5
nilutamide + ZM336372	105	107
MK-1775 + BI-78D3	45.0	102
BI-78D3 + OSU-03012	102	90.2